Among the data in doi:10.1101/2022.06.14.496144 are binding values, retold here.

Sequences of proteins named here, by UniProt entry; tags and fusion partners are left off. A change or cut given only in a name is not applied to a line headed by its entry.
UniProt B5W3T4: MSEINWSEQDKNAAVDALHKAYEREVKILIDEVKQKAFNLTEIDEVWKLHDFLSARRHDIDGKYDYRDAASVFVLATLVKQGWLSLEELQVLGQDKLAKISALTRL

The target in this assay is T1, SynOCP1 lacking the N-terminal extension (ΔNTE-SynOCP1) (Synechocystis sp. PCC 6803) (UniProt P74102).
T1 sequence: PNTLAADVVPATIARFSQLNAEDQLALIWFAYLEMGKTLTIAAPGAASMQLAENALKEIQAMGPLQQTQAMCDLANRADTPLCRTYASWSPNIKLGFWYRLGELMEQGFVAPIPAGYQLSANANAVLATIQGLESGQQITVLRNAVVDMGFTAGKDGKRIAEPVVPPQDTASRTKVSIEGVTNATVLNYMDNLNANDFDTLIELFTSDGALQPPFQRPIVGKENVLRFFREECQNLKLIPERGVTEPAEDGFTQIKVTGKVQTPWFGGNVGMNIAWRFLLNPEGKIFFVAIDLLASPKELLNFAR
In words: SEC.

No constants are given. Whether binding was seen depends on the method and setting. Binding can be weak; no strength is given.

Regarding “Fluorescence Recovery Protein homolog from Arthrospira (Limnospira) maxima (AmaxFRP) (from UniProt B5W3T4)”, the binding entry is listed as “binds”.
